The results in this text go back to PMC8356473.

These are yes or no findings as the source states them, for the method shown. In cells and extracts the contact can be indirect. Binding can be weak; no strength is given. Tags and fused reporters may be left off the sequences shown.

In the test the target is T1, FLAG-SH3BGRL3 (SH3 Domain Binding Glutamate Rich Protein Like 3), expressed in SKBR3 cells (human) (UniProt Q9H299).
T1 sequence: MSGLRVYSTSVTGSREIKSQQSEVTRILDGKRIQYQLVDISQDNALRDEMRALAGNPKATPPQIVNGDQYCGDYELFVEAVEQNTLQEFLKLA
The test can be described thus: co-IP; SKBR3 cells transfected or co-transfected; lysate in EB buffer on anti-FLAG M2 Affinity gel resin overnight at 4 °C, 5 washes with EB buffer, elution with 10% SDS, western blot (anti-Myo1c, anti-ErbB2 or anti-HA). For orientation: Immunoblotting shows a protein as a band on a membrane.

As to “Myo1c NECK+TAIL, HA-tagged (domain or fragment)”, the binding result is on record as “binds”.
As for “Myo1c TAIL, HA-tagged (domain or fragment)”, the entry is “no binding”.
